PubChem BioAssay AID1508588 – Peter MacCallum Cancer Centre | 2020

Purpose: 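Genome-wide search for knock-downs that heighten vemurafenib action in melanoma cells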 (primary screen)
Cells: human WM266.4 melanoma cells (BRAF V600 mutant)
Reagents: siRNA pool against human genes, 40 nM
Time to read-out: 96 h from transfection to read-out
Conditions: vemurafenib 300 nM (about IC25), added 48 h after transfection, for 48 h; comparison arm got DMSO vehicle only
Detection: 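Cell gain (DAPI nuclei at end minus before drug, mean of two replicates) and medium lactate by absorbance per cell, both as ratio to non-targeting siRNA, also grouped into fold-change classes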
Reading the numbers: cell gain with vemurafenib: higher = more cell gain than with non-targeting siRNA; lactate per cell with vemurafenib: higher = more lactate made per cell
Rule for the call: 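Enhancement is called by pairing each knock-down's vehicle-arm and drug-arm fold-change classes for viability or glycolysis; which class combinations qualify is not given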
Calls: active = enhances vemurafenib effect; inactive = no enhancement seen
This is an unselected part of about 18,000 reagents. Over the whole deposit, 790 (4.4%) were called active. 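Calls rest on a combination of fold-change classes in drug and vehicle arms, not all shown here.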 A number with no mark means an inactive call.

| Target gene | cell gain with vemurafenib | lactate per cell with vemurafenib |
| --- | --- | --- |
| DPP10 (GeneID 57628) | 0.56 | 0.96 |
| CCDC54 (GeneID 84692) | 0.45 | 0.98 |
| GLRA3 (GeneID 8001) | 0.51 | 0.61 |
| NET1 (GeneID 10276) | 0.34 | 1.25 |
| SDC3 (GeneID 9672) | 0.4 | 1.49 |
| SNAP25 (GeneID 6616) | 0.7 | 0.76 |
| TUBB2A (GeneID 7280) | 0.07 (active) | 1.49 |
| NXPE3 (GeneID 91775) | 0.95 | 0.77 |
| GABRR2 (GeneID 2570) | 0.53 | 0.64 |
| PSIP1 (GeneID 11168) | 0.18 | 3.29 |
| INCENP (GeneID 3619) | -0.05 | 4.64 |
| PTPRT (GeneID 11122) | 1 | 0.76 |
| TGFB3 (GeneID 7043) | 0.56 | 0.9 |
| HEATR4 (GeneID 399671) | 0.74 | 0.87 |
| SQLE (GeneID 6713) | 1.05 | 0.64 |
| PGCKA1 (GeneID 55286) | 0.29 | 2 |
| ARRDC3 (GeneID 57561) | 0.22 | 1.39 |
| FERMT2 (GeneID 10979) | 0.62 | 0.76 |
| MRPL46 (GeneID 26589) | 0.64 | 0.76 |
| PADI1 (GeneID 29943) | 0.9 | 0.58 |
| ADAMTS3 (GeneID 9508) | 0.39 | 0.84 |
| KCTD17 (GeneID 79734) | 0.13 | 1.35 |
| MYRIP (GeneID 25924) | 0.76 | 1.06 |
| CLCA3P (GeneID 9629) | 0.74 | 0.58 |
| ZDHHC11 (GeneID 79844) | 1.2 | 0.55 |
| MAP3K5 (GeneID 4217) | 0.67 | 0.62 |
| DCUN1D5 (GeneID 84259) | 0.93 | 0.56 |
| ANKLE1 (GeneID 126549) | 0.31 | 0.6 |
| CD19 (GeneID 930) | 0.85 | 0.39 |
| RPS10 (GeneID 6204) | 0 | 1.34 |
| KCNAB3 (GeneID 9196) | 0.87 | 0.78 |
| METTL14 (GeneID 57721) | 0.46 | 0.46 |
| GMPPB (GeneID 29925) | 0.6 | 0.98 |
| GALNT4 (GeneID 8693) | 0.84 | 1.04 |
| LASP1 (GeneID 3927) | 0.6 | 1.04 |
| ZNF432 (GeneID 9668) | 0.51 | 0.58 |
| MLANA (GeneID 2315) | 0.9 (active) | 0.48 |
| SP100 (GeneID 6672) | -0.04 | 1.54 |
| CACTIN (GeneID 58509) | 0.58 | 0.87 |
| EVI5 (GeneID 7813) | 0.83 (active) | 0.46 |
| SRSF6 (GeneID 6431) | 0.49 | 1.34 |
| DHRSX (GeneID 207063) | 0.32 | 0.8 |
| RASGEF1B (GeneID 153020) | 0.69 | 1.5 |
| MMAA (GeneID 166785) | 0.54 | 1.04 |
| PALB2 (GeneID 79728) | 0.21 | 0.78 |
| ABCB6 (GeneID 10058) | 0.46 | 1.49 |
| CEP120 (GeneID 153241) | 0.37 (active) | 0.3 |
| CLCN1 (GeneID 1180) | 0.58 | 1.12 |
| CETN1 (GeneID 1068) | 0.46 | 1.03 |
| DBR1 (GeneID 51163) | 0.31 | 0.5 |
| GPR17 (GeneID 2840) | 0.71 | 0.74 |
| RRAGD (GeneID 58528) | 0.44 | 1.56 |
| SCUBE3 (GeneID 222663) | 0.85 | 0.69 |
| TSLIG3A (GeneID 25940) | 0.55 | 1.33 |
| SCCPDH (GeneID 51097) | 0.56 | 1.41 |
| TSGA10IP (GeneID 254187) | 1.07 | 0.62 |
| TCHHL1 (GeneID 126637) | 0.25 | 1.14 |
| PPIL6 (GeneID 285755) | 0.97 | 0.78 |
| LRRC37A3 (GeneID 374819) | 0.8 | 0.86 |
| EHMT1 (GeneID 79813) | 1.01 | 0.72 |
| SS18L1 (GeneID 26039) | 0.81 | 0.89 |
| IFITM1 (GeneID 8519) | 0.69 | 0.52 |
| LIG3 (GeneID 3980) | 0.3 | 1.43 |
| SERPINB3 (GeneID 6317) | 0.74 | 0.98 |
| LAMB3 (GeneID 3914) | 0.65 | 0.92 |
| IL34 (GeneID 146433) | 0.93 | 0.62 |
| WDR44 (GeneID 54521) | 0.68 | 0.9 |
| AKR1A1 (GeneID 10327) | 0.18 | 0.84 |
| SMYD3 (GeneID 64754) | 0.43 | 0.6 |
| LDHD (GeneID 197257) | 0.82 | 0.7 |
| MAGEA2B (GeneID 266740) | 0.93 | 0.58 |
| P2RY6 (GeneID 5031) | 0.83 | 0.46 |
| C2 (GeneID 717) | 0.73 | 0.82 |
| ZMIZ2 (GeneID 83637) | 0.69 | 0.97 |
| PURG (GeneID 29942) | 0.18 | 1.92 |
| CCR3 (GeneID 1232) | 0.37 | 0.84 |
| FAM76A (GeneID 199870) | 0.56 | 0.94 |
| ZDHHC22 (GeneID 283576) | 0.56 | 1.37 |
| EDNRB (GeneID 1910) | 0.75 | 1.46 |
| SERINC2 (GeneID 347735) | 0.26 | 1.27 |
| LTB4R2 (GeneID 56413) | 0.35 | 0.38 |
| CDKAL1 (GeneID 54901) | 0.63 | 0.86 |
| FOXJ3 (GeneID 22887) | 0.59 | 0.45 |
| PGBD1 (GeneID 84547) | 0.56 (active) | 0.46 |
